Experimental data reported in the supplement of paper PMC10735217.
Some of the results follow. This data set is noisy: repeats of one test often differ as much as different tests do.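 The human kidney-derived cells carry a stably integrated construct of eight TEAD-binding elements driving luciferase, read by luminescence in a drug-repurposing library screen. A compound counts as a hit when its signal is more than five robust Z scores above the plate mean.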

Test system: HEK293A TEAD-LUC reporter
Assay: TEAD-luciferase reporter activity (YAP activation), robust Z score vs plate; higher = stronger YAP/TEAD activation
Conditions: 24 h

SMILES | TEAD-luciferase reporter activity (compound concentration: 200 nM) | TEAD-luciferase reporter activity (compound concentration: 2 uM) | TEAD-luciferase reporter activity (compound concentration: 10 uM)
CC(C)(Oc1ccc(C2CC2(Cl)Cl)cc1)C(=O)O (stereo not given) [ciprofibrate] | inactive: -0.233 | inactive: -0.503 | inactive: 0.131
CCOC(=O)c1ccc(O)cc1 | inactive: 0.312 | inactive: -2.23 | inactive: -1.63
CCCCSc1nc(C)c(CC(=O)O)s1 | inactive: 0.197 | inactive: 3.03 | inactive: -1.65
O=c1ccn(CCO)c(C(O)c2ccccc2)c1O (stereo not given) | inactive: 0.481 | inactive: -1.5 | inactive: -0.879
COCCOCOc1ccc(C(=O)/C=C/c2ccc(C(=O)O)cc2)cc1C12CC3CC(CC(C3)C1)C2 | inactive: 2.16 | inactive: 4.65 | inactive: 0.361
CC[N+](C)(CC)CCOC(=O)C(O)(c1ccccc1)C1CCCCC1 (stereo not given) | inactive: 0.0633 | inactive: 0.184 | inactive: -1.36
CCCCCCCCCCCCCCCC(=O)OC[C@H](O)[C@H]1OC(=O)C(=O)C1O (stereo not given in full) | inactive: 1.18 | inactive: -0.693 | inactive: 2.69
Cn1cc(-c2ccncc2)c(-c2ccc(OCc3ccc4ccccc4n3)cc2)n1 | inactive: 0.865 | inactive: -1.73 | inactive: 1.16
Cc1ccc(O)c(-c2cc(-c3ccccc3)[nH]n2)c1 | inactive: 2.05 | active: 5.44 | inactive: 2.07
CCC(C)(C)NC(=N)NC#N [Guancidine] | inactive: -1.93 | inactive: -0.595 | inactive: -0.921
c1ccc2c(c1)Sc1ccccc1N2CCN1CCCC1 | inactive: -0.681 | inactive: 0.0758 | inactive: 4.7
Cc1cc(OCC2CCN(C(=N)N)CC2)cc(OS(=O)(=O)c2ccccc2Cl)c1 [thrombin inhibitors, 3-D] | inactive: -1.47 | inactive: -1.15 | inactive: 1.74
Nc1ncnc2c1ncn2C1OC(CO)C(O)C1O (stereo not given) [Adenoscan] | inactive: -0.204 | inactive: -2.26 | inactive: -1.62
OCC1OC(n2cnc3c(S)ncnc32)C(O)C1O (stereo not given) | inactive: 1.03 | inactive: 0.337 | inactive: 1.73
CCOc1ccc2ccccc2c1C(=O)N[C@@H]1C(=O)N2[C@@H]1SC(C)(C)[C@@H]2C(=O)O [Nafcillin sodium] | inactive: 0.109 | inactive: 0.0399 | active: 7.08
CC1=CCCC(C)(C)C12CCC(C)O2 (stereo not given) | inactive: -0.492 | inactive: -0.299 | inactive: -1.45
C=CC1=C(C)C2=Cc3c(C)c(CCC(=O)O)c4[n]3[Fe]([Cl])[n]3c(c(C)c(C=C)c3=CC3=NC(=C4)C(CCC(=O)O)=C3C)=CC1=N2 | inactive: -0.632 | inactive: -0.456 | inactive: 0.0655
CCCCCCCCCCCCCCCCCCCC(=O)N[C@H]1CC[C@]2(C)C3C[C@H](O)[C@@]4(C)C(CC[C@@H]4[C@H](C)CCC(=O)O)[C@@H]3[C@H](O)C[C@@H]2C1 (stereo not given in full) [Aramchol] | inactive: 0.904 | inactive: 1.35 | inactive: 1.05
O=C(OCC(O)CO)c1ccccc1Nc1ccnc2c(C(F)(F)F)cccc12 (stereo not given) [floctafenine] | inactive: 0.854 | inactive: 0.763 | inactive: 0.739

SMILES | TEAD-luciferase reporter activity (compound concentration: 200 nM) | TEAD-luciferase reporter activity (compound concentration: 2 uM) | TEAD-luciferase reporter activity (compound concentration: 10 uM)
CC1=C(c2ccc(NN=C(C#N)C#N)cc2)NNC(=O)C1 [levosimendan] | inactive: -1.53 | inactive: 0.137 | inactive: 0.749
CCc1cc(C(C)=O)c(O)cc1OCCCCCC(C)(C)c1nnn[nH]1 | inactive: -1.16 | inactive: 1.23 | inactive: 0.176
CC(=O)Nc1ccc(OC(=O)c2ccccc2O)cc1 | inactive: -0.504 | inactive: -0.592 | inactive: 0.61
FC(F)(F)c1cc(Br)cc(Nc2nnc(Cc3ccncc3)c3ccccc23)c1 | inactive: -2.35 | inactive: -1.34 | inactive: -1.65
CC(=O)N(C)C1(c2ccccc2)CCN(CCC[C@]2(c3ccc(Cl)c(Cl)c3)CCCN(C(=O)c3ccccc3)C2)CC1 [Osanetant] | active: 5.35 | inactive: -0.253 | inactive: -0.899
Cc1c(Cn2c(C)nc3c(C(=O)O)cc(N4CCOCC4)cc32)cccc1C(F)(F)F | inactive: 1.22 | inactive: 1.35 | inactive: -0.648
CCN(CC)CCNC(=O)c1ccc(N)cc1 [Pronestyl] | inactive: 0.344 | – | inactive: -0.747
CCN(CC)CCNC(=O)c1ccc(N)cc1 [procainamide, Elan] | – | inactive: 0.231 | –
NC(=O)c1cc[n+](COC[n+]2ccccc2/C=N/O)cc1 | inactive: -0.954 | inactive: 1.6 | inactive: -0.334
CCOc1ccc(NC(=O)C(C)O)cc1 (stereo not given) | inactive: -1.96 | inactive: -1.79 | inactive: -0.591
O=C(O)C[CH2][Ge](=[O])[O][Ge](=[O])[CH2]CC(=O)O [proxigermanium] | inactive: 0.15 | inactive: -1.04 | inactive: 1.86
Nc1ncnc2c1ncn2[C@@H]1O[C@@H]2COP(=O)(S)O[C@@H]3[C@@H](O)[C@H](COP(O)(=S)O[C@H]2[C@H]1O)O[C@H]3n1cnc2c(N)ncnc21 (stereo not given in full) | inactive: -0.463 | inactive: 1.39 | inactive: 1.25
C[C@@]1(C(=O)N[C@@H](CCC(=O)O)C(=O)O)CCCN1C(=O)CN [Trofinetide] | inactive: -1.79 | inactive: -0.0762 | inactive: -0.374
COC(=O)[C@H](Cc1ccccc1)NC(=O)c1ccc(C(F)(F)F)cc1 | inactive: 0.246 | inactive: -0.484 | inactive: 0.385
Cc1cccc(C)c1NC(=O)CN1CCCCCC1 [pincainide] | inactive: -0.586 | inactive: -0.876 | inactive: 0.347
CCN(CC)CCC(c1ccccc1)C1CCCCC1 (stereo not given) | inactive: -1.34 | inactive: 0.146 | inactive: 0.834
C[C@H](N)C(=O)N[C@@H](CCC(N)=O)C(=O)O [Glutamine dipeptide] | inactive: -1.17 | inactive: 1.69 | inactive: -0.423
CN(C)[C@@H]1C(O)=C(C(=O)NCNC(CCCCN)C(=O)O)C(=O)[C@@]2(O)C(O)=C3C(=O)c4c(O)cccc4[C@@](C)(O)[C@H]3C[C@@H]12 (stereo not given in full) | inactive: -0.686 | inactive: 0.0114 | active: 10.5
COc1ccc(CNc2c(NCCCN(C)C)c(=O)c2=O)cc1 | inactive: 0.258 | inactive: -1.43 | inactive: -0.78

SMILES | TEAD-luciferase reporter activity (compound concentration: 200 nM) | TEAD-luciferase reporter activity (compound concentration: 2 uM) | TEAD-luciferase reporter activity (compound concentration: 10 uM)
CN1Cc2cccc3scc(c23)S1(=O)=O | inactive: -0.79 | inactive: -0.385 | inactive: -1.26
N#Cc1cccnc1N1CCOCC1 | inactive: 2.4 | inactive: -0.0976 | inactive: -1.31
O=C(Nc1ccc(Cl)cc1)c1cc(Br)ccc1O | inactive: 1.22 | inactive: 0.00317 | inactive: 2.2
c1cc2cc3ccc(OCCN4CCCCC4)cc3nc2cc1OCCN1CCCCC1 | inactive: 0.251 | inactive: -0.436 | inactive: -0.481
COc1cccc(NC(=O)c2ccc(CN3CCCC3)cc2)c1 | inactive: -0.601 | inactive: 1.34 | inactive: 2.48
C1=CC2=N/C(=N\c3ccc(OCCN4CCCC4)c(c3)COC/C=C/COCc3cccc2c3)N1 [Pacritinib] | inactive: -1.14 | inactive: 4.94 | inactive: 2.14
NC(=S)NN=C1C=CC(=NN=C(N)N)C=C1 [ambazone] | inactive: -1.56 | inactive: -0.156 | inactive: -2.16
CC(C)CN(C[C@@H](O)[C@H](Cc1ccccc1)NC(=O)O[C@H]1CO[C@H]2OCC[C@H]21)S(=O)(=O)c1ccc(N)cc1 [Darunavir] | inactive: -0.867 | – | inactive: -0.132
CC(C)CN(C[C@@H](O)[C@H](Cc1ccccc1)NC(=O)O[C@H]1CO[C@H]2OCC[C@H]21)S(=O)(=O)c1ccc(N)cc1 [darunavir] | – | inactive: -0.605 | –
COc1ccc(/C=C/C(=O)Nc2ccc3c(c2)NC(=O)C(C)(C)O3)cc1 | inactive: 0.554 | inactive: 0.385 | active: 5.06
CC(NC(=O)C(C)NC(=O)C(N)CCCC(N)C(N)=O)C(=O)O (stereo not given) | inactive: -0.411 | inactive: -0.0627 | inactive: 1.53
COc1cccc(OCCCN)c1-c1cc(Nc2cnc(C#N)cn2)n[nH]1 | inactive: -0.4 | inactive: -1.72 | inactive: -1.5
CN(C)CCN1C(=O)c2cccc3cc(NC(N)=O)cc(c23)C1=O | inactive: -1.86 | inactive: 0.194 | inactive: -0.801
CC(=O)NCC1CC(c2ccc(-c3ccccc3)cc2)=NO1 (stereo not given) | inactive: -1.05 | inactive: -0.55 | inactive: -0.616
O=C(O)COc1ccccc1/C=N/NC(=O)c1ccncc1 | inactive: -1.06 | inactive: -0.325 | inactive: -1.59
COc1cc2c(cc1OC)[C@@H](CCN1CCN(c3ccccc3)CC1)[C@@H](C)N2 | inactive: 1.19 | inactive: -0.91 | inactive: -0.554
O=[N+]([O-])c1cc(Cl)cc(Cc2cc(Cl)cc([N+](=O)[O-])c2O)c1O | inactive: 3.65 | inactive: -1.74 | inactive: 0.714
CC(=O)NC[C@H]1CC(c2ccc(C3=CCN(C(=O)CO)CC3)cc2)=NO1 | inactive: -0.382 | inactive: -2.06 | inactive: -1.12
CCOC(=O)[C@H](Cc1ccc(N)nc1)c1cn(C2CCCCC2)cn1 | inactive: 0.842 | inactive: -1.76 | inactive: -0.231

Three records drawn at random from the list so far, as already listed:
SMILES | TEAD-luciferase reporter activity (compound concentration: 200 nM) | TEAD-luciferase reporter activity (compound concentration: 2 uM) | TEAD-luciferase reporter activity (compound concentration: 10 uM)
CC[N+](C)(CC)CCOC(=O)C(O)(c1ccccc1)C1CCCCC1 (stereo not given) | inactive: 0.0633 | inactive: 0.184 | inactive: -1.36
CCN(CC)CCNC(=O)c1ccc(N)cc1 [procainamide, Elan] | – | inactive: 0.231 | –
CC1=C(c2ccc(NN=C(C#N)C#N)cc2)NNC(=O)C1 [levosimendan] | inactive: -1.53 | inactive: 0.137 | inactive: 0.749
